Test results as given in publication PMC6787163 (Frontiers in Chemistry, 2019).
Square brackets hold non-standard residues; d marks the D form. Lys(N3) = [N-]=[N+]=NCCCC[C@H](N)C(=O)O

Experiment: general procedure: Fmoc solid-phase peptide synthesis; Tentagel S-RAM (~0.22 mmol/g); HCTU, DIPEA (TLR7 ligand coupling)
Details: for conjugation yield: conjugation step; for isolated mass / isolated yield: whole synthesis; for step yield: late stage modification step

Substance	conjugation yield (run 1) [%]	conjugation yield (run 2) [%]	other results
Ac-Lys(Man3)-Lys(Man3)-Lys(Man3)-Lys(Man3)-Lys(Man3)-Lys(Man3)-Gly-Lys-NH2			conjugation yield: 85%
Ac-[Lys(N3)][Lys(N3)][Lys(N3)][Lys(N3)][Lys(N3)][Lys(N3)]GK-NH2			isolated mass (scale 100 umol): 51.57 mg; isolated yield (scale 100 umol): 44.1%
Ac-Lys(1,2-Man2)-Gly-Lys(1,2-Man2)-Gly-Lys-NH2	41	49	
Ac-Lys(Man3)-Lys(Man3)-Lys(Man3)-Lys(Man3)-Lys(Man3)-Lys(Man3)-Gly-Lys(pent-4-ynoic amide)-NH2			step yield: 94%
Ac-Lys(1,6-Man2)-Lys(1,6-Man2)-Lys(1,6-Man2)-Lys(1,6-Man2)-Lys(1,6-Man2)-Lys(1,6-Man2)-Gly-Lys-NH2	57	56	
Ac-Lys(Man3)-Gly-Lys(Man3)-Gly-Lys-NH2	43	49	
Ac-Lys(1,3-Man2)-Gly-Lys(1,3-Man2)-Gly-Lys(1,3-Man2)-Gly-Lys-NH2	82	96	
Ac-Lys(1,6-Man2)-Gly-Lys(1,6-Man2)-Gly-Lys(1,6-Man2)-Gly-Lys-NH2	85	90	
Ac-Val-Thr-His-Thr-Tyr-Leu-Glu-Pro-Gly-Pro-Val-Thr-Ala-Asn-Arg-Gln-Leu-Tyr-Pro-Glu-Trp-Thr-Glu-Ala-Gln-Arg-Leu-Asp-Cys-Trp- -Gly-Lys(Peg-TLR7L)-NH2			isolated mass: 1.03 mg; isolated yield (over 35 couplings, scale of the general procedure 100 μmol (azidolysine backbones), 100–250 μmol (gp100 peptid)): 0.23%
Ac-Lys(1,3-Man2)-Lys(1,3-Man2)-Lys(1,3-Man2)-Lys(1,3-Man2)-Lys(1,3-Man2)-Lys(1,3-Man2)-Gly-Lys-NH2	99	62	
Ac-Lys(Man1)-Gly-Lys(Man1)-Gly-Lys(Man1)-Gly-Lys-NH2	69	63	
Ac-Lys(Man1)-Gly-Lys(Man1)-Gly-Lys-NH2	61	19	
Ac-Lys(Gal)-Gly-Lys(Gal)-Gly-Lys-NH2			conjugation yield: 53%
Ac-Val-Thr-His-Thr-Tyr-Leu-Glu-Pro-Gly-Pro-Val-Thr-Ala-Asn-Arg-Gln-Leu-Tyr-Pro-Glu-Trp-Thr-Glu-Ala-Gln-Arg-Leu-Asp-αAbu-Trp-Arg-Gly-Lys(Peg-TLR7L)-NH2			isolated yield (over 35 couplings, scale 100 µmol): 1.78%; isolated mass (scale 100 µmol): 7.85 mg
Ac-Lys(1,2-Man2)-Lys(1,2-Man2)-Lys(1,2-Man2)-Lys(1,2-Man2)-Lys(1,2-Man2)-Lys(1,2-Man2)-Gly-Lys(pent-4-ynoic amide)-NH2			step yield: 96%
Ac-Lys(1,2-Man2)-Lys(1,2-Man2)-Lys(1,2-Man2)-Lys(1,2-Man2)-Lys(1,2-Man2)-Lys(1,2-Man2)-Gly-Lys-NH2	98	62	
Ac-Lys(1,6-Man2)-Gly-Lys(1,6-Man2)-Gly-Lys-NH2	28	76	
Ac-Lys(1,3-Man2)-Gly-Lys(1,3-Man2)-Gly-Lys-NH2	14	99	
Ac-Lys(Man3)-Gly-Lys(Man3)-Gly-Lys(Man3)-Gly-Lys-NH2	80	51	
Ac-Lys(Man1)-Lys(Man1)-Lys(Man1)-Lys(Man1)-Lys(Man1)-Lys(Man1)-Gly-Lys-NH2	82	59	
Ac-Lys(1,2-Man2)-Gly-Lys(1,2-Man2)-Gly-Lys(1,2-Man2)-Gly-Lys-NH2	80	33	
